Assay [1] deals with T1, LpoA-His6 expressed from the chromosome (Vibrio cholerae) (UniProt Q9KUE0).
T1 sequence: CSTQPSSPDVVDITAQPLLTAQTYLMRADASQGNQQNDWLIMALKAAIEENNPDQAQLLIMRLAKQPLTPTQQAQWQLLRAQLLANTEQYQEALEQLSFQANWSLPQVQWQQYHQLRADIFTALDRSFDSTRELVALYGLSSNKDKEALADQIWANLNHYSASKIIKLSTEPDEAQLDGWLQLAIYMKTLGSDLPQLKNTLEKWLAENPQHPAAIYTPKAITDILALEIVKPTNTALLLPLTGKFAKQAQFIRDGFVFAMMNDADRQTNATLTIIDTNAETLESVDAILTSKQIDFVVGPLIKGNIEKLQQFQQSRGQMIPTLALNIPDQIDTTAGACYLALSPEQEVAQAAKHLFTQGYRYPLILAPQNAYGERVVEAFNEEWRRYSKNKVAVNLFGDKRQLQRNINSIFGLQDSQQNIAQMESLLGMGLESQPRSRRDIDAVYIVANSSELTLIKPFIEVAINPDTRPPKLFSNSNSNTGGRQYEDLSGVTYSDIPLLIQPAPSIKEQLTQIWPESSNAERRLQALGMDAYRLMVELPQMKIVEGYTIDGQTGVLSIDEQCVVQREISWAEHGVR
Put plainly: affinity purification with mass spectrometry.

Assay [2] concerns the target 6x His-tagged CsiV expressed from its native chromosomal location (Vibrio cholerae). As to the kind of experiment: affinity purification with mass spectrometry.

Our source for the binding values is PMC4063736.

These are yes or no findings as the source states them, for the method shown. Binding seen in cells or lysates may run through a third protein. These calls come from enrichment with a bait or labelling near it, and not all partners need be listed. A no says only that the protein was not detected with the bait. For some of these results: Where a sequence is shown, tags or fusion partners need not be part of it.

On to CsiV (endogenous, V. cholerae), for which the binding entry in assay [1] was “binds”.

B1: PBP1A (endogenous, V. cholerae) (enzyme, UniProt Q9KNU5 1-825)
chain: MKFIKRLLVFSLICIILGVTTIFGFYFYVKSDLPDVATLRDVQLQTPMQVFSQDGKLIAQFGEKRRIPLKLEEMPKELIEAVIATEDSRYYEHYGFDPIGITRAAFAVLASGSASQGASTITQQLARNFFLSNEKKVMRKVKEIFIAIHIEQLLSKQEILELYLNKIYLGYRSYGVGAAAQAYFGKEVKDLTLGEIALIAGLPKAPSTMNPIYSVERATNRRNVVLQRMLDEKYITKAEYDAARAEPVLPKYHGAEIELNAPYVAEIARAWMVERYGEEAAYTSGMNVYTTVDSKLQRAANQAAINNLLAYDERHGYRGAEKELWQVNQPAWSSTQLSEYLSNEPTYGDMFPAAVLSVEEKSAQVWVKSYGVQTIAWEDMNWARRFINDDRQGPLPKSANEFLAAGQQIWVRPRTQDGAITAWKLTQVPNANTAFVAMNPENGAVTALVGGFNFVHNKFNRATQSVRQVGSSIKPFIYSAALNKGLTLATLINDAPINQWDESQGTAWRPKNSPPTYTGPTRLRIGLAQSKNVMAVRVLREVGLDETREYLTRFGFKLDQLPRSETIALGAGSLTPVQMAQGFSVFANNGYFVEPFYISRVENPFGNIEFSAEPKVVCHRECSSELDEFAEQDAASPYAPKVISEQNAFLTREMLYSNIWGGGEWSSDTGWNGTGWRAQALKRRDIGGKTGTTNDSKDAWYNGYAPGIVGVAWVGFDDHSRNLGKTAPNRNIEDDVSGAESGGKTALPAWVEFMSLALQDVPVQQKAVPNNIARVRIDRDTGLLTNKLDSSSMFEYFEAGTEPTEYVSEHVNESIYSTSSGEELF
Take B1: the binding entry in assay [1] and in assay [2] was “no binding” in each case.

B2: LpoA (endogenous, V. cholerae) (protein, UniProt Q9KUE0 27-603)
chain: CSTQPSSPDVVDITAQPLLTAQTYLMRADASQGNQQNDWLIMALKAAIEENNPDQAQLLIMRLAKQPLTPTQQAQWQLLRAQLLANTEQYQEALEQLSFQANWSLPQVQWQQYHQLRADIFTALDRSFDSTRELVALYGLSSNKDKEALADQIWANLNHYSASKIIKLSTEPDEAQLDGWLQLAIYMKTLGSDLPQLKNTLEKWLAENPQHPAAIYTPKAITDILALEIVKPTNTALLLPLTGKFAKQAQFIRDGFVFAMMNDADRQTNATLTIIDTNAETLESVDAILTSKQIDFVVGPLIKGNIEKLQQFQQSRGQMIPTLALNIPDQIDTTAGACYLALSPEQEVAQAAKHLFTQGYRYPLILAPQNAYGERVVEAFNEEWRRYSKNKVAVNLFGDKRQLQRNINSIFGLQDSQQNIAQMESLLGMGLESQPRSRRDIDAVYIVANSSELTLIKPFIEVAINPDTRPPKLFSNSNSNTGGRQYEDLSGVTYSDIPLLIQPAPSIKEQLTQIWPESSNAERRLQALGMDAYRLMVELPQMKIVEGYTIDGQTGVLSIDEQCVVQREISWAEHGVR
Regarding B2, in assay [2], the binding result is listed as “binds”.
